Assay [1] has as its target T1, SPA-2, HA-epitope tagged, fused to a C-terminal peroxisome tail-anchor (TA peroxisome) (N. crassa) (UniProt V5IQM7).
T1 sequence: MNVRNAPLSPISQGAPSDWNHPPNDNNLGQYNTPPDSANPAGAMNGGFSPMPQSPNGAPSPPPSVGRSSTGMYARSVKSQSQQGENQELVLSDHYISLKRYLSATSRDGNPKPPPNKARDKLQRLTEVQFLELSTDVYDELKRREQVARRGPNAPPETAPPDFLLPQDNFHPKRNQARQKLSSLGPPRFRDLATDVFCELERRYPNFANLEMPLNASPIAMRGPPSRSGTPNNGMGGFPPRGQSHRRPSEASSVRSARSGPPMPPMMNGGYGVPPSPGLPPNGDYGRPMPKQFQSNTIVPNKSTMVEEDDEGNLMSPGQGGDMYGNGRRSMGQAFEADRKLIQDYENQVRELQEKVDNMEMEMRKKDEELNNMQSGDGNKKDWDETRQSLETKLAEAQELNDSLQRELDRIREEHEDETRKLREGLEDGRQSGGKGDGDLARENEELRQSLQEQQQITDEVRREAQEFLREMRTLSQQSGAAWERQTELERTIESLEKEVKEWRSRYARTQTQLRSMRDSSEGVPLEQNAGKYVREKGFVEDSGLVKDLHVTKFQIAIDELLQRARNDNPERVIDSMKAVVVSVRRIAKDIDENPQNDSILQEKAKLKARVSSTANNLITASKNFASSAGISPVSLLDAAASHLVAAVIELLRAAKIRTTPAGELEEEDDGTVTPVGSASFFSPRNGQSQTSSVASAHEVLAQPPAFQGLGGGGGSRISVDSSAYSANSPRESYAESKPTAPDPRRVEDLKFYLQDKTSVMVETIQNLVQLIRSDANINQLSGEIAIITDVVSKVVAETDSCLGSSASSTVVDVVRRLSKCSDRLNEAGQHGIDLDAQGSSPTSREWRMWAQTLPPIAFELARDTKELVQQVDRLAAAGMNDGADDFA
Put plainly: ectopic targeting to the peroxisome surface, recruitment of mGFP fusions seen by confocal microscopy; HA-tagged protein with C-terminal PEX-26 tail-anchor combined by sexual crosses with mGFP fusion proteins; mCherry-PTS1 as peroxisome marker; living hyphae.

The target in assay [2] is T2, SPA-2 (polarisome protein) (N. crassa) (UniProt V5IQM7).
T2 sequence: T1 sequence
The assay is described as follows: native gel or EMSA; 3-12% blue native PAGE of N. crassa extracts at 4 °C, blot with anti-HA-HRP; wild type, deletion strains and deletion variants of the partner.

These are yes or no findings as the source states them, for the method shown. Binding calls can cover weak binding; strength is not graded here. For some assays here: Tags and fused reporters may be left off the sequences shown.

In the case of JNS-1 mGFP fusion protein (N. crassa), the binding result in assay [1] was “binds”. In the case of JANUS-1 (JNS-1) (from UniProt Q1K4U3), the binding entry in assay [2] is “binds”.

The values are drawn from article PMC7275032.
